Source: article PMC10934892
These are yes or no findings as the source states them, for the method shown. Binding seen in cells or lysates may run through a third protein. Some entries that bind do so weakly or less than the wild type. For some assays here: Tags and fused reporters may be left off the sequences shown.

Protein sequences, listed by entry. Tags and fused reporters are not part of them. Residues count along the entry.
UniProt P11021, residues 19-654: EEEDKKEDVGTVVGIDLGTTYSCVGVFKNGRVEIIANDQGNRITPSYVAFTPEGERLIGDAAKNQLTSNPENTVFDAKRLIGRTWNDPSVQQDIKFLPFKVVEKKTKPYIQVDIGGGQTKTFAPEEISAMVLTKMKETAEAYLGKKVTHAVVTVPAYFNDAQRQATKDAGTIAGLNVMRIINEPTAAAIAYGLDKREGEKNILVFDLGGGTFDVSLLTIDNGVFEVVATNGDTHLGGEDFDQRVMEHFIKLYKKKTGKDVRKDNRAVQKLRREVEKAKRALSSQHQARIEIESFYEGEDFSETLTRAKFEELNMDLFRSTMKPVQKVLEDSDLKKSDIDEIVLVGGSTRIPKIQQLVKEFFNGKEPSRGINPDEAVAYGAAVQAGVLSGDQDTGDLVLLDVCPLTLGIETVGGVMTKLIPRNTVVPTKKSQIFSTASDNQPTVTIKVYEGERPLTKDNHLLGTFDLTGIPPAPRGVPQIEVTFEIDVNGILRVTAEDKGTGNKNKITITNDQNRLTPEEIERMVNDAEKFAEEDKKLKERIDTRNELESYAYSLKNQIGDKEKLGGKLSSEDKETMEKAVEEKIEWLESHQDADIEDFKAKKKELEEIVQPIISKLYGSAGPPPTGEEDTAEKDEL

Key:
[1] = molecular target: T1, Flag-tagged overexpressed RRS1 (UniProt Q15050); experiment: co-IP; IP with anti-Flag antibodies from BC cells (BT-549, MDA-MB-231) infected with lentivirus for Flag-tagged RRS1; Western blot for GRP78
T1 sequence: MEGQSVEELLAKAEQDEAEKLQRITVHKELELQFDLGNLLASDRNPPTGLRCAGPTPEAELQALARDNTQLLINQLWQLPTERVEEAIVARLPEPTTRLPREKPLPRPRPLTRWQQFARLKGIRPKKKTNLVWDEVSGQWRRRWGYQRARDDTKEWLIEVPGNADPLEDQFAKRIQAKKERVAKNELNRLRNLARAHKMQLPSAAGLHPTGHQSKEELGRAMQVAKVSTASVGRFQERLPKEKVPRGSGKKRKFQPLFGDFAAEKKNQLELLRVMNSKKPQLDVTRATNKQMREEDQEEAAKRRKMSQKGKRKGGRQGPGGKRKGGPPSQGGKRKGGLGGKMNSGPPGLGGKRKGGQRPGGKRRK

[2] = molecular target: Glucose-Regulated Protein 78 (GRP78) (human (endogenous in BT-549 and MDA-MB-231)) (UniProt P11021); experiment: co-IP; IP of cell lysates (BT-549, MDA-MB-231) with anti-GRP78 antibody and protein A/G beads overnight, IgG as control; Western blot for RRS1

Molecule	binding [1]	binding [2]
Glucose-Regulated Protein 78 (GRP78) (from UniProt P11021 19-654)	binds	
Regulator of ribosome synthesis 1 (RRS1) (protein, UniProt Q15050 1-365) MEGQSVEELLAKAEQDEAEKLQRITVHKELELQFDLGNLLASDRNPPTGLRCAGPTPEAELQALARDNTQLLINQLWQLPTERVEEAIVARLPEPTTRLPREKPLPRPRPLTRWQQFARLKGIRPKKKTNLVWDEVSGQWRRRWGYQRARDDTKEWLIEVPGNADPLEDQFAKRIQAKKERVAKNELNRLRNLARAHKMQLPSAAGLHPTGHQSKEELGRAMQVAKVSTASVGRFQERLPKEKVPRGSGKKRKFQPLFGDFAAEKKNQLELLRVMNSKKPQLDVTRATNKQMREEDQEEAAKRRKMSQKGKRKGGRQGPGGKRKGGPPSQGGKRKGGLGGKMNSGPPGLGGKRKGGQRPGGKRRK		binds
